The text below walks through data of patent publication US8569501B2, “Semiconductor materials and methods of preparation and use thereof” (BASF SE, priority 2008, dated 2013).

The data set is described as follows: Bottom-gate top contact OFET device characterization. As to the method:
Bottom-gate top contact OFETs were fabricated using compounds of the present teachings as the semiconductor layer. Prime grade n-doped silicon wafers (100) having 300 nm of thermally grown oxide (Process Specialties Inc.) were used as device substrates. These were rinsed with water, methanol, and acetone before film deposition. Trimethylsilyl functionalization of the Si/SiO2 surface was carried out by exposing the silicon wafers to hexamethyldisilazane (HMDS) vapor at room temperature in a closed container under nitrogen overnight. Thin films of mono-bromo mono-cyano perylenes were prepared by vapor deposition and spin-coating, and thin films of the dimeric perylenes were prepared by spin coating only. Different solvents and solvent mixtures can be used for semiconductor film deposition. The gate region was accessed by an ohmic contact to the Si substrate, and the gold source and drain contacts were prepared by vapor deposition through a shadow mask onto the semiconductor layer.
All electrical measurements were performed in ambient atmosphere. To allow comparison with other organic FETs, mobilities (μ) were calculated by standard field effect transistor equations. In traditional metal-insulator-semiconductor FETs (MISFETs), there is typically a linear and saturated regime in the IDS vs VDS curves at different VG (where IDS is the source-drain saturation current, VDS is the potential between the source and drain, and VG is the gate voltage). At large VDS, the current saturates and is given by: (IDS)sat=(WCi/2L)μ(VG−Vt)^2 (1) where L and W are the device channel length and width, respectively, Ci is the capacitance of the oxide insulator (˜10 nF/cm^2 for ˜300 nm SiO2), and Vt is the threshold voltage. Mobilities (μ) were calculated in the saturation regime by rearranging equation (1): μsat=(2IDSL)/[WCi(VG−Vt)^2] (2) The threshold voltage (Vt) can be estimated as the X-axis intercept of the linear section of the plot of VG versus (IDS)^1/2 (at VSD=−100 V).
It was observed that the dimeric perylenes tested provided solutions with an unexpectedly wide range of viscosity, which facilitated the device fabrication process.

[1] abbreviates: spin-coating from chloroform/dichlorobenzene (98:2, w/w) solution, about 8 mg/mL, ambient atmosphere (Table 3).
Setting [2] is: film by vacuum deposition, ambient atmosphere (Table 2a).
Setting [3] is: film by vacuum deposition, tested in ambient atmosphere (Table 2a).
Where [4] appears, read: spin-coating from chloroform solution, about 8 mg/mL, ambient atmosphere (Table 2b).

As for `CCCCC(C)N1C(=O)c2ccc3c4c(-c5ccc(-c6ccc(-c7cc8c9c(ccc%10c%11c(C#N)cc%12c%13c(ccc(c7c9%10)c%13%11)C(=O)N(C(C)CCCC)C%12=O)C(=O)N(C(C)CCCC)C8=O)s6)s5)cc5c6c(ccc(c7c(C#N)cc(c2c37)C1=O)c64)C(=O)N(C(C)CCCC)C5=O` (stereo not drawn) [BPDI(1MP)-BT, 5,5′-bis-[N,N′-bis(1-methylpentyl)-1-cyanoperylene-3,4:9,10-bis(dicarboxiimide)-7-yl]-2,2′-bithiophene], under setting [1], the “Current On/Off Ratio” value is recorded as 3.3E+04, the Mobility was found to be 2.6E−04 cm^2/Vs and the VTH is listed as 0 V.
Consider `CCCCC(CC)CN1C(=O)c2ccc3c4c(-c5ccc(-c6ccc(-c7cc8c9c(ccc%10c%11c(C#N)cc%12c%13c(ccc(c7c9%10)c%13%11)C(=O)N(CC(CC)CCCC)C%12=O)C(=O)N(CC(CC)CCCC)C8=O)s6)s5)cc5c6c(ccc(c7c(C#N)cc(c2c37)C1=O)c64)C(=O)N(CC(CC)CCCC)C5=O` (stereo not drawn) [BPDI(2EH)-BT, 5,5′-bis-[N,N′-bis(2-ethylhexyl)-1-cyanoperylene-3,4:9,10-bis(dicarboxiimide)-7-yl]-2,2′-bithiophene], for which, under setting [1], the “Current On/Off Ratio” value was 2.4E+06, the Mobility came to 0.05 cm^2/Vs and the VTH was −15 V.
Consider `CCCCCCCCN1C(=O)c2ccc3c4c(-c5ccc(-c6ccc(-c7cc8c9c(ccc%10c%11c(C#N)cc%12c%13c(ccc(c7c9%10)c%13%11)C(=O)N(CCCCCCCC)C%12=O)C(=O)N(CCCCCCCC)C8=O)s6)s5)cc5c6c(ccc(c7c(C#N)cc(c2c37)C1=O)c64)C(=O)N(CCCCCCCC)C5=O` [BPDI(8)-BT, 5,5′-bis-[N,N′-bisoctyl-1-cyanoperylene-3,4:9,10-bis(dicarboxiimide)-7-yl]-2,2′-bithiophene], for which, under setting [1], the “Current On/Off Ratio” value is given as 2.4E+04, the Mobility stood at 8.7E−03 cm^2/Vs and the VTH was −5 V.
For `CCCCC(C)N1C(=O)c2ccc3c4c(C#N)cc5c6c(ccc(c7c(Br)cc(c2c37)C1=O)c64)C(=O)N(C(C)CCCC)C5=O` (stereo not drawn) [PDI(1MP)BrCN, N,N′-bis(1-methylpentyl)-1-bromo-7-cyanoperylene-3,4:9,10-bis(dicarboxiimide)], the “Current On/Off Ratio” value worked out at 1.7E+04 under setting [2] and 1.1E+04 under setting [4]. Further, the “Current On/Off Ratio (0 V)” value under setting [2] was found to be 1.7E+04 and the “Current On/Off Ratio (0 V)” value under setting [4] came to 1.1E+04. Moreover, the Mobility was 8.78E−04 cm^2/Vs under setting [3] and 5.13E−03 cm^2/Vs under setting [4].
As for `CCCCC(CC)CN1C(=O)c2ccc3c4c(C#N)cc5c6c(ccc(c7c(Br)cc(c2c37)C1=O)c64)C(=O)N(CC(CC)CCCC)C5=O` (stereo not drawn) [PDI(2EH)BrCN, N,N′-bis(2-ethylhexyl)-1-bromo-7-cyanoperylene-3,4:9,10-bis(dicarboxiimide)], the “Current On/Off Ratio” value is given as 7.6E+03 under setting [2] and 1.3E+04 under setting [4]. The “Current On/Off Ratio (0 V)” value reads like this: under setting [2], 6.7E+03; under setting [4], 1.3E+04. In addition, the Mobility under setting [3] is 3.03E−03 cm^2/Vs and the Mobility under setting [4] was 3.90E−04 cm^2/Vs.
Consider `CCCCCCCCN1C(=O)c2ccc3c4c(C#N)cc5c6c(ccc(c7c(Br)cc(c2c37)C1=O)c64)C(=O)N(CCCCCCCC)C5=O` [PDI(8)BrCN, N,N′-bisoctyl-1-bromo-7-cyanoperylene-3,4:9,10-bis(dicarboxiimide)], for which, under setting [2], the “Current On/Off Ratio” value worked out at 1.8E+05 and the “Current On/Off Ratio (0 V)” value is recorded as 1.6E+05. In addition, the Mobility under setting [3] turned out to be 1.78E−02 cm^2/Vs. In addition, under setting [4], the “Current On/Off Ratio” value came to 2.8E+03, the “Current On/Off Ratio (0 V)” value is given as 2.8E+03 and the Mobility was determined as 1.10E−04 cm^2/Vs.
